Drawing on paper PMC8143644, this text covers binding for three molecules.

Common to all, as to assay: affinity purification with mass spectrometry; whole ovaries of flies expressing GFP-tagged baits lysed in 50 mM Tris-HCl pH 7.5, 100 mM NaCl, 250 mM sucrose, 0.1% Nonidet P-40, 1 mM DTT; RNase A/T1 treated; GFP-TRAP MA beads, 1 h at 4 °C; tag alone as control; label-free LC-MS/MS (all six baits) and dimethyl labeling MS (Hrp48, Vas)
The target in test [1] is T1, Nos-GFP (Drosophila melanogaster) (UniProt P25724).
T1 sequence: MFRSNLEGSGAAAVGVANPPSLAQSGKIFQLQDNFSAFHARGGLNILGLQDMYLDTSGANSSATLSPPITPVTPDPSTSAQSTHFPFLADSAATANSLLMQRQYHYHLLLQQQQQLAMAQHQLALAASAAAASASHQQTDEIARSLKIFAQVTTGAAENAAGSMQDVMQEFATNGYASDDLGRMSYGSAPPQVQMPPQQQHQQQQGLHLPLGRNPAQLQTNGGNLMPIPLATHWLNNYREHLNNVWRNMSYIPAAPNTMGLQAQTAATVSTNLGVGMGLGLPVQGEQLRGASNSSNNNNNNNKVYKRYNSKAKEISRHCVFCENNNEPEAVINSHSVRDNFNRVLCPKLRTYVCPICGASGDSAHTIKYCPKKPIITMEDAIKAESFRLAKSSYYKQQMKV

Test [2] deals with T2, Vas-GFP (Drosophila melanogaster), P09052.
T2 chain: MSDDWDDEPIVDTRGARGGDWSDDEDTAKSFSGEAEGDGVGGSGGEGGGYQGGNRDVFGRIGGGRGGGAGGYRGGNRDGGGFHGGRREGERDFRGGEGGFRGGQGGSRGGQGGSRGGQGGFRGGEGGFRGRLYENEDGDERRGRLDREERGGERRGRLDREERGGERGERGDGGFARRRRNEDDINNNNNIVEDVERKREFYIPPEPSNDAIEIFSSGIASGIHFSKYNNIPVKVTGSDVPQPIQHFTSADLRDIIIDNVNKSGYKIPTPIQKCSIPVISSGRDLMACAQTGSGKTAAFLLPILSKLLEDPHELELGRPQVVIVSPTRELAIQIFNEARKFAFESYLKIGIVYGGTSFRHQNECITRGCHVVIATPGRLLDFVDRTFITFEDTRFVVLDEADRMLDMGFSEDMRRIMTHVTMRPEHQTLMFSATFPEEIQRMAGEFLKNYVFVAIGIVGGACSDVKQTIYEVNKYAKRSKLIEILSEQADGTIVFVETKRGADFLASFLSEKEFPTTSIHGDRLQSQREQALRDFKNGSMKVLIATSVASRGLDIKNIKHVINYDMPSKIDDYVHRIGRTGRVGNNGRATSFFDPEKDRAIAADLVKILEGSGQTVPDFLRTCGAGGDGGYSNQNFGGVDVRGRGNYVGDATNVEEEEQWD
The following applies: remark: other sources report otherwise.

Test [3] has as its target T3, Stau-GFP (Drosophila melanogaster) (UniProt P25159).
T3 sequence: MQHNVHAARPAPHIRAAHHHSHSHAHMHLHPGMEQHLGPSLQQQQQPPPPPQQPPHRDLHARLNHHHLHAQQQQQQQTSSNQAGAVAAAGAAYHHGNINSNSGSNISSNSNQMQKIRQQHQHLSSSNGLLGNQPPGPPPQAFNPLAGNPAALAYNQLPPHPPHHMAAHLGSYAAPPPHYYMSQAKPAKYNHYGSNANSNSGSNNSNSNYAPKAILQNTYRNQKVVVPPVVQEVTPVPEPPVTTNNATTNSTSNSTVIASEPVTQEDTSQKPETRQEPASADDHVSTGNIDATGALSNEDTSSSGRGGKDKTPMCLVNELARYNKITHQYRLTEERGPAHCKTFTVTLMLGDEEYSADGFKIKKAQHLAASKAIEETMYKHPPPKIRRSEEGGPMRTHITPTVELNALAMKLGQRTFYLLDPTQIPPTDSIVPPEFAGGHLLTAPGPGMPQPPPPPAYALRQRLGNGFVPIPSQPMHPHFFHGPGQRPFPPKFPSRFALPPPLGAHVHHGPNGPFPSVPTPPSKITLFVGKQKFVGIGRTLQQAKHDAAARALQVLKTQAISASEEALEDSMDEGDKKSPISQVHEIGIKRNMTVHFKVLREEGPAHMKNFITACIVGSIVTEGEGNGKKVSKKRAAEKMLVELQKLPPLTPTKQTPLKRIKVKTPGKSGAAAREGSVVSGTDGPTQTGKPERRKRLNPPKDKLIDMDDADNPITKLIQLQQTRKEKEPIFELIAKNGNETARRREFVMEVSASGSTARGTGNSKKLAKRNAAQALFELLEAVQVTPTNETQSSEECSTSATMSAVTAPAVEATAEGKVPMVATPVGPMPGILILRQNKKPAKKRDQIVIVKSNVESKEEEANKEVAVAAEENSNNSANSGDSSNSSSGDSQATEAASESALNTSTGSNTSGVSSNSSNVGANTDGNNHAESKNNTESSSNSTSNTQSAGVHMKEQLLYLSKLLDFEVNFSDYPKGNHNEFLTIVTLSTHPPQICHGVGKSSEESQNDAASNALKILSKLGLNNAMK

Results are given in words; binding and its absence hold for the method and conditions named. Binding seen in cells or lysates may run through a third protein. A yes stands for co-enrichment or nearness to the bait. Other partners may have been found. Where a sequence is shown, tags or fusion partners need not be part of it.

B1: CG13090 (Ubiquitin activating enzyme 4) (protein, UniProt Q9VLJ8 1-453)
chain: MMESEVDSERTMLKREIAELRAALNQKEQCLRELDSLFSFATRPEQEVVGNDLESPDVAVHTKLTNDDIARYSRQLILPDFGVQGQLKLKNSSVLIVGLGGLGCPAAQYLAAAGCGHLGLVDYDEVERSNFHRQILHSEDRCGMSKAESARIALLELNPHCEIQCHSRMLYPHNAMHIIRGYDVVLDCTDNVPTRYLLSDACVMLSKPLVSGSALKMDGQLTVYNYANGPCYRCIFPVPPPPEAVTNCGDGGVLGAVTGTIGAMQALEAIKVIVGMGDVLAGRLLIFDGGSGVFRNIRIRSKRPNCHMCSAQPLITELINYEMFCGMHATDKNNPMLLLSTDERLSVEDYQQKIQAQPHLLIDVRPTAEFEICQLPEAVNVPLVEILDDSYLKRLGKQLEDKELPIVLVCRRGNDSQIAVQHLRNRFPTHFVRDLIGGLHAWTNSVDPSFPIY
B1: in test [1], the binding result is “binds”.

B2: Spindle-E, Q9VF26 1-1434 (protein)
chain: MDQEVMDFFDFSKELKRVAAAPQGYISSDPRLMATKFKSSEVPNRELIGTDYVSKIVAKEKCLLNGTLLNEQPQGKRIRTLDDLDTDDEGEETEIRRDDEYYKKFRFNLNRDKNLSIYAKREEILAAINAHPVVIIKGETGCGKTTQVPQYILDEAYKSGKYCNIVVTQPRRIAAISIANRVCQEREWQQNTVCSFQVGLHRPNSLEDTRLLYCTTGVLLNNLINNKTLTHYTHIVLDEVHERDQNMDFLLIVVRRLLATNSRHVKIILMSATIDAKELSDYFTTTNSIPPVITTNHRRKHSIEKFYRDQLGSIIWNEEDVGHQQVPEINKHGYRAAVKIIVIIDNMERKAAIQSRQSYDEALRYGAVLIFLPGIYEIDTMAENLTCMLENDPNIKVSIVRCFSLMTPENQRDVFNPPPPGFRKIILTTNIAESSITVPDVSYVIDFCLAKVKVTDTASSFSSLRLTWASKANCRQRAGRVGRLRSGRVYRMVNKHFYQREMPEFGIPEMLRLPLQNSVLKAKVLNMGSPVEILALALSPPNLSDIHNTILLLKEVGALYLTVDGIYDPLDGDLTYWGTIMSRLPLDTRQSRLIILGYIFNMLEEAIIIAAGLSTPGLFAHEGGRSQLGDSFWMHYIFSDGSGSDLVAIWRVYLTYLNIVENGHDQESAIRWAKRFHVSLRSLKEIHLLVQELRVRCTHLGLIPFPVNPNQMMDDREKAIMLKVIIAGAFYPNYFTRSKESCADTDRNIYQTISGHDPCRTVYFTNFKPAYMGELYTRRIKELFQEVRIPPENMDVTFQEGSQKVFVTFKQDDWIEGSSKYVPVSGRVQSEVYKAVMMRQNRVERPIHIMNPSAFMSYVQQRGIGDVIEGRWIPPTKPLNVELLALPSVFDKTISGSITCIVNCGKFFFQPQSFEECIRNMSEIFNAPQQLRNYVTNASAIAKGMMVLAKRDSYFQRATVIRPENQSNRQPMFYVRFIDYGNCTLLPMQLMRLMPRELTEQYGDLPPRVFECRLAMVQPSSVVSGNNRWSTAANDMLKTVAQCGLIDIEVYSLFNNVAAVLIHMRDGIINDKLVELMLCRRSDEDYMSRKDHDFRLRRQESARNLSTAQRQQINEEYLRSCQLPQDHDLPPPPLEKCKTVVMLKGPNSPLECTMRSITRVGLSKRVNIDHLSVNALLLDADPQDHHDHLIVAHEIAESRNGQTLTARGTTLMPNVQGFGALMVMLFSPTMQLKCNKEGTSYVSVLGGLGCDPDTNEPYFAEHDVLINLDVNILEDDVILINQIRYYIDSVFFNFKEENNPAVSVNERVSIYTQLRSLINRLLCKDRRYIERNMSNADFEWETNPELPLPNEPFGKRAIFPMHSLTELQEEDTGRLVQLRENCSMLHKWRNFEGTLPHMTCKLCNQLLESVPQLRLHLLTILHRDREKQIDYCNQ
Consider B2, for which, in test [2], the binding result is reported as “binds”.

B3: Loquacious (endogenous) (protein, UniProt Q9VJY9 1-465)
chain: MDQENFHGSSLPQQLQNLHIQPQQASPNPVQTGFAPRRHYNNLVGLGNGNAVSGSPVKGAPLGQRHVKLKKEKISAQVAQLSQPGQLQLSDVGDPALAGGSGLQGGVGLMGVILPSDEALKFVSETDANGLAMKTPVSILQELLSRRGITPGYELVQIEGAIHEPTFRFRVSFKDKDTPFTAMGAGRSKKEAKHAAARALIDKLIGAQLPESPSSSAGPSVTGLTVAGSGGDGNANATGGGDASDKTVGNPIGWLQEMCMQRRWPPPSYETETEVGLPHERLFTIACSILNYREMGKGKSKKIAKRLAAHRMWMRLQETPIDSGKISDSICGELEGEPRSSENYYGELKDISVPTLTTQHSNKVSQFHKTLKNATGKKLLKLQKTCLKNNKIDYIKLLGEIATENQFEVTYVDIEEKTFSGQFQCLVQLSTLPVGVCHGSGPTAADAQRHAAQNALEYLKIMTKK
For the molecule B3, the binding entry in test [3] is recorded as “binds”.
